Test results taken from patent US7179908B2, “Water-and organic-soluble cucurbituril derivatives, their preparation methods, their separation methods and uses” (Pohang University of Science and Technology Foundation, priority 2001, dated 2007).

Assay: Ion selective electrode with CB*[5] membrane, fixed solution method (Example 10)
Details: pH 4 Mg(OAc)2-HCl buffer

O=C1N2CN3C(=O)N4CN5C(=O)N6CN7C(=O)N8CN9C(=O)N%10CN1C1%11CCCCC21N1CN2C(=O)N(CN%12C(=O)N(CN%13C(=O)N(CN%14C(=O)N(CN%11C1=O)C%101CCCCC9%141)C81CCCCC7%131)C61CCCCC5%121)C41CCCCC321 (stereo not shown) [CB*[5]]
Detection limit (ion analyzed K^+): 6e-05 mol/L
Detection limit (ion analyzed NH4^+): 0.0004 mol/L
Detection limit (ion analyzed Na^+): 0.00053 mol/L
Detection limit (ion analyzed Pb^2+): 2.5e-07 mol/L
